Out of some 140,000 compounds screened, about 4,300 (3.1%) were called active. This list was built around the results that the source calls inconclusive (neither active nor inactive); the mix of calls is not that of the screen.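 The calls were made as follows: active = readout at or below -70, meaning at least 70% loss of cells showing the perinucleolar compartment, a nuclear body marking cancer cells; inconclusive = readout between -30 and a set limit; inactive = the rest.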
Assay: High Content Assay for Compounds that inhibit the Assembly of the Perinucleolar Compartment;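 also: plate controls were DMSO wells for no effect and camptothecin positive control wells for full effect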
Conditions: PC3M PTB-GFP, PNC prevalence imaging, 16 h; at 10 µM; stronger effect = lower value
How it was run: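 Read-out is percentage of cells bearing a perinucleolar compartment, from automated 20x imaging of fixed, Hoechst-stained PC3M PTB-GFP cells. Cells were seeded 4 h, then exposed 16 h to compound (23 nl of library stock) in duplicate plates.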

SMILES | activity change (PNC), negative = inhibition
CS(=O)(=O)N1N=C(c2ccco2)CC1c1ccccc1 (configuration not stated) | inactive: 15.3%
Cc1nc2ccccc2n2c(O)c(CC(=O)O)cc12 | inconclusive: -36.7%
Cn1c(CCN2CCCCC2)nc2cc([N+](=O)[O-])ccc21 | inconclusive: -35.4%
CC1Cc2ccccc2N1C(=O)COC(=O)C1(c2ccccc2F)CCCC1 (configuration not stated) | active: -90.4%
CCOCCCn1c(=N)c(C(=O)NCCN2CCOCC2)cc2c(=O)n3cccc(C)c3nc21 | inconclusive: -80%
O=C(CCSc1ccccc1)Nc1ncccn1 | inactive: -14.1%
CCOC(=O)c1cc(NC(=O)c2ccoc2C)cc(C(=O)OCC)c1 | inactive: 28.1%
N#C/C(=C\c1cccc(OC(=O)c2cccs2)c1)C(N)=O | inconclusive: -60%
O=C(/C=C/c1cccs1)Nc1ccc(N2CCOCC2)c(S(=O)(=O)Nc2ccccc2Cl)c1 | inconclusive: -46%
O=C(Nc1ccc(N2CCCCC2)c(Cl)c1)c1cccnc1 | inconclusive: -45%
O=C(CSc1nc2ccccc2s1)N/N=C/c1ccco1 | inactive: 5.51%
CC(C)(C)C(=O)N=C1SC2CS(=O)(=O)CC2N1c1ccc2c(c1)OCO2 (configuration not stated) | inconclusive: -62.3%
CCCCC(=O)Nc1c(C)cc(C)cc1Cl | inconclusive: -56%
CCn1c2ccccc2c2nnc(SCC(=O)NC3CCS(=O)(=O)C3)nc21 (configuration not stated) | inconclusive: -56.9%
Cc1cccc(N(CC(=O)NCc2ccccc2)C(=O)Cn2nnc(-c3ccc(C)o3)n2)c1 | active: -83.8%
COC(=O)c1ccccc1NC(=O)c1ccc(-c2ccc(Br)cc2)o1 | inactive: 49.8%
O=C(CC(Cc1ccccc1)C(=O)O)NCCc1ccc2c(c1)OCO2 (configuration not stated) | inconclusive: -64.8%
O=C(CCN1C(=O)c2ccccc2C1=O)Nc1ccc2c(c1)OCCO2 | active: -88.7%
Cc1n[nH]c(C)c1S(=O)(=O)N1CCCC(C(=O)NC2CCCc3ccccc32)C1 (configuration not stated) | inconclusive: -63.2%
Cc1cc(C(F)(F)F)nn1Cc1ccc(C(=O)NCc2ccco2)o1 | inconclusive: -72.1%
O=C(O)c1ccc(N2CCCCC2)cc1 | inactive: 12.4%
COC(=O)C1=C(NC(=O)C2CCCCC2)CCS1 | inconclusive: -34.3%
FC(F)(F)c1cccc(NC(=S)NCC2COc3ccccc3O2)c1 (configuration not stated) | inactive: -18%

SMILES | activity change (PNC), negative = inhibition
O=C(C1CCCN(S(=O)(=O)c2cnc[nH]2)C1)N1CC(=O)N(CCc2ccccc2)C(=O)C1 (configuration not stated) | active: -119%
Nc1nc(-c2nc3ccccc3[nH]2)cs1 | inconclusive: -57.7%
CC1(C)CC(=O)C2=C(C1)OC1=C(C2)C(=O)CC(C)(C)C1 | inactive: 22.1%
COCc1nc2ccccc2n1Cc1ccccc1Br | inconclusive: -67%
CCn1nc(C)c(C(=O)Nc2cc(Oc3ccc(Cl)cc3)cc([N+](=O)[O-])c2)c1C | inactive: -3.61%
Cc1ccc(C(=O)Nc2ccccc2C(=O)NCc2ccccc2)cc1 | inconclusive: -41%
N/C(=N\OC(=O)COc1ccc2ccccc2c1)c1cccnc1 | inactive: -15.2%
Cc1ccc(S(=O)(=O)N2CCN(C(=O)CC3CCCC3)CC2)cc1 | inconclusive: -30.5%
O=C(COc1ccc(S(=O)(=O)NC2CCCCC2)cc1Cl)NCc1ccc2c(c1)OCO2 | inactive: 2.04%
O=C(CSc1nnnn1C1CCCCC1)N1CCc2ccccc21 | inactive: -23.2%
Cc1cnc(-c2nnc(N(C)C(=O)C3CCCO3)s2)cn1 (configuration not stated) | inconclusive: -34.1%
Cc1ccc(OCCn2cc(Br)c(=O)[nH]c2=O)cc1 | inactive: 1.35%
C/C(Cl)=C/Cn1c(SCCN2CCOCC2)nc2c1c(=O)[nH]c(=O)n2C | inconclusive: -32%
COc1cccc(CNC(=O)c2cc3oc4ccccc4c3n2C)c1OC | active: -106%
Cc1nc(P(=O)(c2ccccc2)c2ccccc2)c(N2CCOCC2)o1 | inconclusive: -43.9%
CCCOc1ccc(OCCSc2nnc(N)s2)cc1 | inactive: 19.9%
O=C(Nc1ccc2c(c1)OCO2)c1ccc2c(c1)OCO2 | inconclusive: -47.3%
CN(C(=O)CSc1nc(N)c2c3c(sc2n1)CSC(C)(C)C3)c1ccccc1 | inconclusive: -48.8%
O=C(CSc1nnc(-c2ccc(F)cc2)c2ccccc12)Nc1ccccc1 | inconclusive: -40.2%
Cc1ccc(C(=O)CNc2ccccc2C)cc1 | inconclusive: -65.7%
COc1ccc(NC(=O)C2CCCO2)cc1OC (configuration not stated) | inconclusive: -42.6%
COCC(=O)Nc1ccc(S(=O)(=O)NCCc2ccccc2)cc1 | active: -107%
COc1ccc(/C=N/NC(=S)NC2CCS(=O)(=O)C2)cc1 (configuration not stated) | inconclusive: -37.5%

SMILES | activity change (PNC), negative = inhibition
OC(COC(c1ccc(Cl)cc1)c1ccc(Cl)cc1)CN1CCCC1 (configuration not stated) | inconclusive: -49.5%
Cc1ccc(NC(=O)c2ccc(-n3cccn3)c([N+](=O)[O-])c2)cc1 | inconclusive: -32.7%
CC(C)(C)c1ccc(O)c(N)c1 | inactive: 2.73%
CC(C)(CNS(=O)(=O)c1ccc(F)cc1)CNS(=O)(=O)c1ccc(F)cc1 | inconclusive: -67.3%
COc1ccc(S(=O)(=O)N2c3cc(Cl)ccc3Oc3nc4ccccc4nc32)cc1 | active: -100%
COc1ccc(NC(=O)c2cc3ccccn3n2)cc1 | inconclusive: -45.7%
COC(=O)C(NC(=O)C(C)Oc1ccccc1)C(C)C (configuration not stated) | inactive: 10.8%
Cc1ccc2cc(CN(CCO)Cc3nnnn3Cc3ccc(F)cc3)c(=O)[nH]c2c1 | inconclusive: -56.8%
CCOC(=O)CC1C(=O)NCCN1S(=O)(=O)c1ccc(Cl)cc1 (configuration not stated) | inactive: 44.3%
O=c1[nH]c(CN2CCCCC2)nc2c1C1(CCCCC1)Cc1ccccc1-2 | inconclusive: -36.8%
O=C(OCC(=O)N1CCN(C(=O)c2ccco2)CC1)c1cn(-c2ccccc2)nc1-c1ccccc1 | inconclusive: -60.2%
CCOC(=O)C1CCN(S(=O)(=O)C(F)(F)c2nc3ccccc3s2)CC1 | inactive: 1.25%
CCN(CC)CCCNC(=S)N1CCn2c(nc3ccccc32)C1 | active: -116%
Cc1cc(-c2cccnc2)c(C#N)c(SCC#N)n1 | inconclusive: -35.1%
Cc1ccc(NS(=O)(=O)c2cc(-c3n[nH]c(=O)c4ccccc34)ccc2C)cc1 | inactive: 6.81%
COc1cc2c(cc1OC)CN(C(=O)CSc1nc(C)cc(C)c1C#N)CC2 | inactive: 96.2%
Cc1noc(NS(=O)(=O)c2ccc(NC(=O)CS(=O)(=O)c3ccccc3)cc2)c1C | inactive: 4.3%
COC(=O)C1=C(N)Oc2cc(C)n(Cc3cccnc3)c(=O)c2C1c1ccc(OC)c(OC)c1OC (configuration not stated) | inconclusive: -52.4%
Cc1cc(N(C)C)cc(C)[n+]1[O-] | inconclusive: -42.7%
COC(=O)c1cc(N2C(=O)C3C(C2=O)C2(C)C=CC3(C)O2)ccc1Cl (configuration not stated) | inactive: 55.2%
CCN(CC)S(=O)(=O)c1ccc2c(c1)c(=O)c(C(=O)NCCOC)cn2C | inconclusive: -52.5%
CN(Cc1ccc(OC(F)F)cc1)C(=O)c1ccc2nccnc2c1 | inconclusive: -46.5%
Cc1ccc(C(=O)CSc2nc(C)cc(SCc3nnc(-c4ccccc4)o3)n2)cc1 | inconclusive: -48.6%

SMILES | activity change (PNC), negative = inhibition
O=C(Nc1nc2nccc(-c3ccccc3)n2n1)C(Cl)(Cl)Cl | inactive: 86.4%
S=c1[nH]nc(CSCc2ccc(Cl)cc2Cl)n1-c1ccccc1 | inconclusive: -41%
Cc1c(Cl)cccc1Nc1nc(N)nc(CSc2nc3ccccc3s2)n1 | inconclusive: -40.5%
C=CCn1cnc2scc(-c3ccc(CC)cc3)c2c1=O | inactive: 10.9%
CCc1ccc(CNc2ccc(O)cc2)cc1 | inactive: -6.79%
CC(=O)c1cccc(NS(=O)(=O)c2ccc(N/C=C\C(=O)c3ccc(C)cc3)cc2)c1 | inconclusive: -34.2%
CCOC(=O)CSc1c(-c2ccc(Cl)cc2)[nH]c2ccccc12 | inactive: -4.42%
Cc1ccc(OCC(=O)NNC(=O)c2ccoc2C)c(Br)c1 | inconclusive: -39.4%
CCCN1CCN(C(c2cc3cc(OCC)ccc3[nH]c2=O)c2nnnn2C2CCCCC2)CC1 (configuration not stated) | inactive: -2.11%
COC(=O)c1c(NC(=O)CSc2nnc(CNc3ccc(Cl)cc3)o2)sc(C)c1C | inconclusive: -34.8%
CCOC(=O)c1c(/N=C/C2C(=O)CC(C)(C)CC2=O)sc(C)c1C | inconclusive: -74%
COC(=O)c1nc2nc(-c3cccs3)cc(C(F)(F)F)n2n1 | inconclusive: -73.2%
CCCCC(=O)Nc1ccc(C(=O)Nc2nnc(COC)s2)cc1 | inconclusive: -49.5%
C=CCC(=O)OCC(=O)Nc1ccc(Oc2ccccc2)cc1 | inconclusive: -36%
C/C=C/c1ccc(OCCOc2cc(C=O)ccc2OC)c(OC)c1 | active: -113%
CC1CCC2(CC1)NC(=O)c1ccccc1O2 (configuration not stated) | inconclusive: -34.9%
CC1(C)Cc2c(sc3ncnc(N)c23)CO1 | inconclusive: -52.5%
COC(=O)c1c(C)[nH]c(C(=O)CN2CCOCC2)c1C | inconclusive: -47.5%
CCSc1nnc(Cn2c(=O)sc3ccccc32)n1-c1ccccc1C | inconclusive: -66.1%
COCCn1c(SCC(=O)Nc2ccccc2)nc2c1c(=O)[nH]c(=O)n2C | inconclusive: -35.8%
COc1cccc(NC(=O)C2CC(=O)n3cnnc3S2)c1 (configuration not stated) | inactive: 9.33%
COc1cc(C=O)ccc1OCCCOc1ccc([N+](=O)[O-])cc1 | inactive: -6.94%
Cc1ccc(C)c(N(CC(=O)NCCSCc2ccco2)S(C)(=O)=O)c1 | inactive: 41.2%

Five consecutive records out of the list so far:
SMILES | activity change (PNC), negative = inhibition
O=C(/C=C/c1cccs1)Nc1ccc(N2CCOCC2)c(S(=O)(=O)Nc2ccccc2Cl)c1 | inconclusive: -46%
O=C(Nc1ccc(N2CCCCC2)c(Cl)c1)c1cccnc1 | inconclusive: -45%
O=C(CSc1nc2ccccc2s1)N/N=C/c1ccco1 | inactive: 5.51%
CC(C)(C)C(=O)N=C1SC2CS(=O)(=O)CC2N1c1ccc2c(c1)OCO2 (configuration not stated) | inconclusive: -62.3%
CCCCC(=O)Nc1c(C)cc(C)cc1Cl | inconclusive: -56%
